Results deposited as PubChem BioAssay AID743454 (Peter MacCallum Cancer Centre, 2014)

Aim: 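Genes whose loss kills vorinostat-resistant colon cancer cells under vorinostat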 (primary screen)
Cells: human HCT116-VR colon cancer cells, selected for vorinostat resistance
Reagent: siRNA pool against human genes, 40 nM siRNA pool
Timing: vorinostat for 24 h, read-out about 72 h after transfection
Conditions: vorinostat at 2.5 µM final
Measurement: 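Cell viability by CellTiter-Fluor and caspase 3/7 activity by luminescence, each scaled to mock wells per plate, duplicates averaged, then robust z-scored over all plates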
Scale: viability robust z-score: higher = more viable cells than screen typical; caspase robust z-score: higher = more caspase 3/7 activity than screen typical
Hit rule: 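Hits are knock-downs in viability class RV1/RV2 or caspase class CA1/CA2, excluding ones that killed cells in the no-drug cell-count arm; hits then retested with single siRNAs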
Here is one part, drawn at random, of about 18,000 reagents tested. Of all reagents, 450 (2.5%) were called active. 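Single biological run; no consistent viability z cut-off exists, so the class columns, not z-scores, define the calls.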 No sequences are given here.

SMAP1: viability hit class = no change; caspase hit class = no change; viability robust z-score = 0.24; caspase robust z-score = -0.28; call = inactive
CYP46A1: viability hit class = no change; caspase hit class = no change; viability robust z-score = -0.44; caspase robust z-score = 0.57; call = inactive
PTS: viability hit class = no change; caspase hit class = no change; viability robust z-score = -0.13; caspase robust z-score = -0.51; call = inactive
HOMEZ: viability hit class = no change; caspase hit class = no change; viability robust z-score = -0.6; caspase robust z-score = 1.01; call = inactive
MOB1A: viability hit class = no change; caspase hit class = no change; viability robust z-score = -0.37; caspase robust z-score = 1.53; call = inactive
TTC7A: viability hit class = no change; caspase hit class = no change; viability robust z-score = 0.29; caspase robust z-score = 0.74; call = inactive
ADRM1: viability hit class = no change; caspase hit class = no change; viability robust z-score = -0.06; caspase robust z-score = 0.24; call = inactive
D2HGDH: viability hit class = no change; caspase hit class = no change; viability robust z-score = -0.68; caspase robust z-score = -0.37; call = inactive
PDHA2: viability hit class = no change; caspase hit class = no change; viability robust z-score = -0.18; caspase robust z-score = -0.57; call = inactive
PPP4R2: viability hit class = no change; caspase hit class = no change; viability robust z-score = 0.06; caspase robust z-score = -0.92; call = inactive
FIBP: viability hit class = no change; caspase hit class = no change; viability robust z-score = 2; caspase robust z-score = -0.66; call = inactive
BRS3: viability hit class = no change; caspase hit class = no change; viability robust z-score = -1.12; caspase robust z-score = -0.68; call = inactive
HHIP: viability hit class = no change; caspase hit class = no change; viability robust z-score = -0.22; caspase robust z-score = 0.04; call = inactive
CDRT4: viability hit class = no change; caspase hit class = no change; viability robust z-score = -0.88; caspase robust z-score = 0.8; call = inactive
RCC2: viability hit class = no change; caspase hit class = no change; viability robust z-score = 0.55; caspase robust z-score = -0.54; call = inactive
DAZAP1: viability hit class = no change; caspase hit class = no change; viability robust z-score = 1.71; caspase robust z-score = -0.58; call = inactive
MYOG: viability hit class = no change; caspase hit class = no change; viability robust z-score = -0.53; caspase robust z-score = 0.58; call = inactive
CPSF2: viability hit class = no change; caspase hit class = no change; viability robust z-score = 1.09; caspase robust z-score = 1.01; call = inactive

2 entries from above, arranged by “viability robust z-score”, descending:
RCC2: viability hit class = no change; caspase hit class = no change; viability robust z-score = 0.55; caspase robust z-score = -0.54; call = inactive
CDRT4: viability hit class = no change; caspase hit class = no change; viability robust z-score = -0.88; caspase robust z-score = 0.8; call = inactive

Further records follow:
PDE6G: viability hit class = no change; caspase hit class = CA1 (caspase activation); viability robust z-score = 0.63; caspase robust z-score = 5.56; call = active
NLE1: viability hit class = no change; caspase hit class = no change; viability robust z-score = 0.6; caspase robust z-score = -0.22; call = inactive
LCAT: viability hit class = no change; caspase hit class = no change; viability robust z-score = -0.26; caspase robust z-score = 0.66; call = inactive
ARID5B: viability hit class = no change; caspase hit class = no change; viability robust z-score = -0.34; caspase robust z-score = -0.83; call = inactive
ROPN1B: viability hit class = no change; caspase hit class = no change; viability robust z-score = 0.04; caspase robust z-score = -0.7; call = inactive
ANKRD35: viability hit class = no change; caspase hit class = no change; viability robust z-score = -0.52; caspase robust z-score = -0.84; call = inactive
SMG6: viability hit class = no change; caspase hit class = no change; viability robust z-score = 0.34; caspase robust z-score = 1.17; call = inactive
LPAR6: viability hit class = no change; caspase hit class = no change; viability robust z-score = 0.79; caspase robust z-score = -1.02; call = inactive
P3H4: viability hit class = no change; caspase hit class = no change; viability robust z-score = -1.6; caspase robust z-score = 0.56; call = inactive
